What was measured:
[1] = tested on: human MDR1; assay: Efflux ratio of permeability across basolateral to apical over apical to basolateral side in MDCK cells transfected with human MDR1 at 5 uM by LC-MS/MS analysis; conditions: dog
[2] = tested on: human MDR1; assay: Permeability across apical to basolateral side in MDCK cells transfected with human MDR1 at 5 uM by LC-MS/MS analysis; conditions: dog

In the case of `N#Cc1ccnc(Nc2nc(C3CC3)c(C3CCN(C4COC4)CC3)s2)c1`, the efflux ratio at 5 µM [1] is reported as 0.94 and the Papp A→B at 5 µM [2] is reported as 15.4 ×10⁻⁶ cm/s.

— ChEMBL document CHEMBL3627690, “Scaffold-Hopping and Structure-Based Discovery of Potent, Selective, And Brain Penetrant N-(1H-Pyrazol-3-yl)pyridin-2-amine Inhibitors of Dual Leucine Zipper Kinase (DLK, MAP3K12)” (J Med Chem, 2015)
